## Results of single-concentration screens

The chains behind the UniProt entries cited, without tags or fusion partners. Residues count along the entry.
UniProt Q4DA54, 1-478: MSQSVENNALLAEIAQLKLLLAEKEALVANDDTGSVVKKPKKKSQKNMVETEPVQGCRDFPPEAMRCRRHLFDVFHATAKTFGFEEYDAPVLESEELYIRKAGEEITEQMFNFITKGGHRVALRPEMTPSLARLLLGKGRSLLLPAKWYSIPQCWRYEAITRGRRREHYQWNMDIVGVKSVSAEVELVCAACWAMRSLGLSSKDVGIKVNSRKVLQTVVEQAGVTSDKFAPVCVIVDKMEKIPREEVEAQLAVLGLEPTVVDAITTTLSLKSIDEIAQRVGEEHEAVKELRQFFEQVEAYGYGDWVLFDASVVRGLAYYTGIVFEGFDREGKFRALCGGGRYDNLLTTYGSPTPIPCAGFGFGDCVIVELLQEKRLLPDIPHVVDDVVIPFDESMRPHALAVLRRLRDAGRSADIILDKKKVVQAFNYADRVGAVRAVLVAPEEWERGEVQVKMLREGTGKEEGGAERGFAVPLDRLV
UniProt A4I591, 1-473: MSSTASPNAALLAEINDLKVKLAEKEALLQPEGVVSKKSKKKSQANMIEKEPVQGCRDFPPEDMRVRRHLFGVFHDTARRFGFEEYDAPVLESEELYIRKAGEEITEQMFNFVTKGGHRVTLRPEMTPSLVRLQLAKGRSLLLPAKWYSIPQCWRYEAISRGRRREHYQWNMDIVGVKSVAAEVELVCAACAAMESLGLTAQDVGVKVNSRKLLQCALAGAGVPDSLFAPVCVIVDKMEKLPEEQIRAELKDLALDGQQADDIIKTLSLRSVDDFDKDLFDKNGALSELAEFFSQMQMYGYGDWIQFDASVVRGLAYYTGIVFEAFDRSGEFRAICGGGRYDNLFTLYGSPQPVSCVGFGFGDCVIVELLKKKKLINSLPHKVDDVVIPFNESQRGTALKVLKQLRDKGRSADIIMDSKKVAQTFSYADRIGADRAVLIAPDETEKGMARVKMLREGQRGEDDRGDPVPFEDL

The values are deposited in ChEMBL (CHEMBL3988442, “University of Dundee, Small-Polar-MMV Screening Library” (2021)).

T. brucei: 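Whole-parasite assay of Trypanosoma brucei over 72 hours; the read-out is not stated. Tested at 30 µM. Direction is inferred from retests: higher values go with stronger inhibition. Values scatter widely below zero; nearly all retest evidence comes from the higher of the two concentrations used. About 64,000 compounds were tested under these conditions; 1.5% (about 940) showed 50% or more at least once.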
TcHisRS: 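Histidine-tRNA ligase, Trypanosoma cruzi CL Brener (UniProt Q4DA54). Enzyme assay of histidyl-tRNA synthetase; the read-out is not stated. Compounds at 30 µM. The record gives no direction; compounds that gave an IC50 in retests scored well above the rest, so higher reads as stronger inhibition. Of about 69,000 compounds tested this way, about 31 (0.045%) reached 50% or more in at least one test.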
LiHisRS: 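Histidine-tRNA ligase, Leishmania infantum (UniProt A4I591). Enzyme assay of histidyl-tRNA synthetase; the read-out is not stated. Compounds at 30 µM. The record gives no direction; compounds that gave an IC50 in retests scored well above the rest, so higher reads as stronger inhibition. The assay is labelled LdHisRS but filed under L. infantum. Size under these conditions: about 69,000 compounds, about 410 of them at 50% or above in at least one test.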

The filed quantity is “Percent Effect” (%).
How 0% and 100% were set is not recorded. Most values in the screen are low, and negative values occur.
The compounds are a random part of those screened.
A dash means the value is not listed here; it may have been measured.

| Compound | T. brucei | TcHisRS | LiHisRS |
|---|---|---|---|
| `c1cnc(N2CCOCC3(CN(Cc4cc[nH]n4)CCO3)C2)nc1` (stereo unspecified) | - | 4.813% | 0.8547% |
| `O=S(=O)(NC1=NCN(CCc2cccs2)CN1)c1ccc(Cl)cc1` | -40.24% | 2.924% | 18.42% |
| `FCCOc1cccc(NCc2c[nH]nc2-c2cccnc2)c1` | -7.743% | 5.419% | 19.48% |
| `CN1Cc2cc(F)ccc2N(CC(C)(C)O)CCC1=O` | -23.74% | 3.371% | 12.24% |
| `CN1CC(=O)N(c2ccccc2)CC12CCN(CC1CCOCC1)C2.O=C(O)C(F)(F)F.O=C(O)C(F)(F)F` (stereo unspecified) | 11.1% | - | - |
| `CC(=O)NC[C@H]1C[C@@H]2CCN1C[C@@H]2c1cc(-c2cccs2)nn1C` | - | 1.493% | 16.22% |
| `O=C(O)c1ccc2c(c1)C1(CCCCC1)CN2C(=O)c1cccc(F)c1` | 8.1% | 0% | 22.86% |
| `O=C(C1CC1)N1CCC(c2nc(O)c3c(n2)CN(C2CCCC2)CC3)C1` (stereo unspecified) | -25.69% | 0% | 1.042% |
| `CCCOc1c(CNC2CCSC2)cccc1OC` (stereo unspecified) | 10.03% | 7.179% | 14.29% |
| `O=C(CNc1ccc(OC2CCOC2)cc1)NCc1cccs1` (stereo unspecified) | 8.961% | 4.478% | -1.205% |
| `CCC(CO)N(Cc1ccc(F)cc1)Cc1c(C)nn(C)c1Cl` (stereo unspecified) | -19.06% | 5.051% | 22.34% |
| `CC(C)C(=O)NC1COC2(CCN(Cc3cccnc3)CC2)C1` (stereo unspecified) | - | 11.65% | 23.3% |
| `COc1ccccc1-c1ncc(CN2C[C@H](O)[C@@H](N3CCCC3)C2)s1` | 20.14% | -3.59% | 20.63% |
| `O=S(=O)(NCCCn1cncn1)c1ccc2c(c1)OCCO2` | -32.5% | 4.348% | 6.667% |
| `COc1ccc(C(C)Nc2nc3c(C)nn(C)c3c(=O)n2C)cc1` (stereo unspecified) | - | -1.754% | -81.42% |
| `CN1CCN(C(=O)CCc2cccnc2)c2ccc(F)cc21` | -79.39% | 1.571% | 10.34% |
| `Cc1ccc(C(=O)NC2CCCN(C)C2)c(=O)[nH]1` (stereo unspecified) | -8.284% | 7.035% | 12.94% |
| `COc1coc(CN2CCCC(CCc3ccc(F)cc3)C2)cc1=O` (stereo unspecified) | -96.92% | 6.404% | 25% |
| `Cn1cccc1C(=O)N1CCc2ncnc(N3CCOCC3)c2CC1` | -22.41% | 8.163% | 23% |
| `CCO[C@H]1COC[C@@H]1NC(=O)CCc1nc(-c2ccccc2)no1` | -3.299% | 6.466% | 11.39% |
| `CN(C)Cc1cn2c(n1)CN(C1CCOC1)CC2` (stereo unspecified) | -83.72% | 4.673% | 9.722% |
| `O=C1CCCN1Cc1nnc2n1CCCN(C(=O)c1ccc[nH]1)C2` | -87.62% | 11.64% | 13.64% |
| `CC(C)COCCC(=O)NS(=O)(=O)c1ccc(Cl)s1` | -9.88% | 4.444% | 11.11% |
| `Cc1occc1C(=O)N1CCC2(CC1)CC(c1cccnc1)C(=O)N2C` (stereo unspecified) | -15.97% | 0.5405% | 24.53% |
| `Cc1noc(C)c1CCC(=O)NCC1(O)CCN(c2ccccn2)C1` (stereo unspecified) | -9.423% | 5.426% | 17.02% |
| `COc1ccc(C(C)Nc2ncc(C(N)=O)cc2Cl)c(OC)c1` (stereo unspecified) | -11.93% | 6.077% | 26.76% |
| `CC1CCCCN1Cc1nc(C2CC2)no1` (stereo unspecified) | -23.19% | 0% | 18.75% |
| `Cc1noc(C)c1C(=O)N1CCCC(c2cc(C(F)(F)F)[nH]n2)C1` (stereo unspecified) | -14.17% | -1.754% | -7.273% |
| `[H][C@@]12C[C@H](C(=O)NC(C)C)C[C@@]1([H])OCCN2` | -113.3% | - | - |
| `Cn1c(CN2CCN(CC3CCCO3)CC2)nc2ccccc21` (stereo unspecified) | -39.6% | 0.9804% | 17.6% |
| `CC(=O)N(C)CC(=O)Nc1cccc(N2CCN(CC3CC3)CC2)c1` | 10.19% | 2.542% | 22.64% |
| `Cc1ccc2oc(C(=O)N3CCCC(n4nc(C)nc4C)C3)cc2n1` (stereo unspecified) | 2.454% | 4.399% | 10.19% |
| `Fc1ccc(CN2CCC(c3n[nH]c4nccnc34)CC2)cc1F` | -9.697% | 0.5405% | 22.22% |
| `CCOC(=O)C1CCN(Cc2csc(-c3ccc(C)o3)n2)CC1` | 13.52% | 3.944% | 16.52% |
| `Cc1ccccc1C1(C(=O)NCCN2CCCC(C)C2)CCOCC1` (stereo unspecified) | 12.86% | 1.466% | 8.333% |
| `COC(=O)[C@@H](NC(=O)c1coc(COc2cccc(F)c2)n1)C(C)C` | -187.8% | 8.696% | 6.579% |
| `Cc1cc(C)n(C2CN(CC(=O)NC3CCOCC3)C2)n1` | 26.48% | 4.135% | 21.62% |
| `COCCOC1CCN(C(C(=O)O)c2ccc3c(c2)OCO3)CC1` (stereo unspecified) | -15.46% | 4.478% | 6.993% |
| `CN(Cc1ccc2c(c1)OCCO2)Cn1nc(C(C)(C)C)ccc1=O` | -0.1104% | 6.667% | -0.9009% |
| `CC(C)Cc1cc(CNC(=O)c2cccc3c2OCC3)no1` | -63.18% | -0.6061% | 17.78% |
| `Cc1cccc(Nc2c(C#N)c(=O)n(C)c(=O)n2C)c1` | -9.958% | 0% | 13.11% |
| `CC(C)(C)NCc1ccc(OCc2ccc3c(c2)OCCO3)cc1` | - | -1.242% | 17.5% |
| `O=C1NCCCc2c1oc1ccc(O)c(CN3CCOCC3)c21` | -39.15% | -2% | -2.174% |
| `O=C(CCN1CCc2cncnc2C1)N1CCc2sccc2C1` | -50.88% | 20.62% | 20.97% |
| `Cc1noc([C@@]23CCO[C@@H]2CCN(C(=O)c2ccsc2)C3)n1` | - | 1.493% | 16.67% |
| `COc1ccc(CN2CCC(c3cc(O)nc(C)n3)C2)c(F)c1` (stereo unspecified) | -5.815% | 15.38% | 15.94% |
| `O=C(CN1CCOCC1)Nc1ccc(C(F)(F)F)cc1Cl` | - | 4.167% | 6.25% |
| `CC(C(=O)N1CCN(Cc2ccc3c(c2)OCO3)CC1)n1ccnc1` (stereo unspecified) | 9.806% | 5.917% | 25% |
| `CC1(c2ccccc2)CCC(=O)N(CCN2CCCOC2=O)C1` (stereo unspecified) | -10.46% | 8.163% | 13.22% |
| `CN(Cc1nnc(C2CC2)n1C)C1CCN(CCc2ccncc2)C1` (stereo unspecified) | -33.42% | 3.061% | 8.065% |
| `c1ccc(Cc2nnc([C@H]3CCN(C4CCCCC4)C3)o2)cc1` | -7.665% | 1.493% | 27.03% |
| `Oc1ccc(C2Nc3ccccc3C3=NCCCN32)cc1` (stereo unspecified) | -17.04% | 11.41% | 14.48% |
| `Cc1nccn1-c1ccc(NC(=O)C2CCCN2CC2CC2)cc1` (stereo unspecified) | 9.136% | 1.685% | 15.38% |
| `NC(=O)c1nc(CN2CCOC(C(F)(F)F)C2)no1` (stereo unspecified) | -90.48% | 0.5525% | -7.042% |
| `CC(C)n1[nH]c(=O)c2c1NC(=O)CC2C1CCCCC1` (stereo unspecified) | -19.44% | 5.366% | 10.17% |
| `O=C(c1ccc(Cl)o1)N1CCCC1c1nnc2n1CCCCC2` (stereo unspecified) | - | 0% | 14.16% |
| `CC(C)c1nnc(CN(C)C(c2ccc(F)cc2)c2cccnc2)o1` (stereo unspecified) | -53.44% | -0.5236% | 3.448% |
| `CC1COCCN1Cc1noc(C(C)(C)C)n1` (stereo unspecified) | -41.02% | 2.97% | -4.762% |
| `CN1CCN(c2cnn(CCn3cccn3)c(=O)c2)CC1` | - | 2.299% | 10.26% |
| `Cc1cc(C)n(CC(=O)NC(Cc2ccsc2)c2ccccn2)c(=O)n1.Cl` (stereo unspecified) | -10.69% | - | - |
| `Cc1ccc(CN2CCN(c3ncccc3C(N)=O)CC2CCO)cc1` (stereo unspecified) | -9.368% | 6.329% | 14.58% |
| `CSCc1nc(CNC(=O)C2CCCN(CC(N)=O)C2)cs1` (stereo unspecified) | -75.03% | 0.5405% | -10.96% |
| `COc1ccc(OCc2cc(C(=O)N3C[C@@H](C)O[C@@H](C)C3)n[nH]2)c(Cl)c1` | 27.12% | -1.667% | 1.887% |
| `O=C(Cc1ccsc1)N1CCn2cc(CN3CCCC3)nc2C1` | 33.12% | 4.132% | 32.38% |
| `COCC1CN(Cc2ccc(C)s2)Cc2nnn(C)c21.O=C(O)C(F)(F)F` (stereo unspecified) | -30.47% | - | - |
| `CCOCC1COCCC12CCN(C(=O)C1=CCCCC1)CC2` (stereo unspecified) | -61.07% | 5.063% | 15.52% |
| `CCCNC(=O)CCNC(=O)Cc1nc(-c2ccco2)oc1C` | -50.27% | 5.394% | 10.68% |
| `CN(C)CCN(Cc1ccccn1)Cc1ccnn1C1CCCCO1.O=C(O)CC(O)(CC(=O)O)C(=O)O` (stereo unspecified) | -14.13% | - | - |
| `CC(C)CNC(=O)C[S+]([O-])Cc1csc(C2CCCCC2)n1` (stereo unspecified) | - | 3.448% | 17.95% |
| `Cc1ccc(C(=O)N2CCc3ncnc(-c4cnn(C)c4)c3CC2)cn1` | - | 6.542% | 8.333% |
| `Cn1c(CN2CCCC(Cn3cc(CCO)nn3)C2)cc2ccccc21` (stereo unspecified) | -8.405% | 2.041% | 13.89% |
| `CCOC(=O)CCCNC(=O)CN1CCN(c2ncccn2)CC1` | -43.91% | 3.347% | 8.491% |
| `CC(C)=CCN1C[C@@H]2CN(C(=O)c3ccc(CO)cc3)C[C@]2(C(=O)O)C1` | - | 2.146% | 4.918% |
| `Cc1cc(C(=O)NCC(Cc2cccc(F)c2)N2CCCCC2=O)no1` (stereo unspecified) | -44.58% | 6.024% | 10.26% |

For reference, 7 entries once more:

Compound,T. brucei,TcHisRS,LiHisRS
Cc1cccc(Nc2c(C#N)c(=O)n(C)c(=O)n2C)c1,-9.958%,0%,13.11%
CCOCC1COCCC12CCN(C(=O)C1=CCCCC1)CC2 (stereo unspecified),-61.07%,5.063%,15.52%
O=S(=O)(NC1=NCN(CCc2cccs2)CN1)c1ccc(Cl)cc1,-40.24%,2.924%,18.42%
COC(=O)[C@@H](NC(=O)c1coc(COc2cccc(F)c2)n1)C(C)C,-187.8%,8.696%,6.579%
Cc1cc(C)n(C2CN(CC(=O)NC3CCOCC3)C2)n1,26.48%,4.135%,21.62%
c1cnc(N2CCOCC3(CN(Cc4cc[nH]n4)CCO3)C2)nc1 (stereo unspecified),-,4.813%,0.8547%
O=C(C1CC1)N1CCC(c2nc(O)c3c(n2)CN(C2CCCC2)CC3)C1 (stereo unspecified),-25.69%,0%,1.042%